± gives the standard deviation of the averaged measurements. Only a part is listed here, and it is no random draw. Small differences around the control level are noise.

The chains behind the UniProt entries cited, without tags or fusion partners. Where a name states a change or a piece, a line headed by the entry shows the natural chain unless it says otherwise.
UniProt P27708: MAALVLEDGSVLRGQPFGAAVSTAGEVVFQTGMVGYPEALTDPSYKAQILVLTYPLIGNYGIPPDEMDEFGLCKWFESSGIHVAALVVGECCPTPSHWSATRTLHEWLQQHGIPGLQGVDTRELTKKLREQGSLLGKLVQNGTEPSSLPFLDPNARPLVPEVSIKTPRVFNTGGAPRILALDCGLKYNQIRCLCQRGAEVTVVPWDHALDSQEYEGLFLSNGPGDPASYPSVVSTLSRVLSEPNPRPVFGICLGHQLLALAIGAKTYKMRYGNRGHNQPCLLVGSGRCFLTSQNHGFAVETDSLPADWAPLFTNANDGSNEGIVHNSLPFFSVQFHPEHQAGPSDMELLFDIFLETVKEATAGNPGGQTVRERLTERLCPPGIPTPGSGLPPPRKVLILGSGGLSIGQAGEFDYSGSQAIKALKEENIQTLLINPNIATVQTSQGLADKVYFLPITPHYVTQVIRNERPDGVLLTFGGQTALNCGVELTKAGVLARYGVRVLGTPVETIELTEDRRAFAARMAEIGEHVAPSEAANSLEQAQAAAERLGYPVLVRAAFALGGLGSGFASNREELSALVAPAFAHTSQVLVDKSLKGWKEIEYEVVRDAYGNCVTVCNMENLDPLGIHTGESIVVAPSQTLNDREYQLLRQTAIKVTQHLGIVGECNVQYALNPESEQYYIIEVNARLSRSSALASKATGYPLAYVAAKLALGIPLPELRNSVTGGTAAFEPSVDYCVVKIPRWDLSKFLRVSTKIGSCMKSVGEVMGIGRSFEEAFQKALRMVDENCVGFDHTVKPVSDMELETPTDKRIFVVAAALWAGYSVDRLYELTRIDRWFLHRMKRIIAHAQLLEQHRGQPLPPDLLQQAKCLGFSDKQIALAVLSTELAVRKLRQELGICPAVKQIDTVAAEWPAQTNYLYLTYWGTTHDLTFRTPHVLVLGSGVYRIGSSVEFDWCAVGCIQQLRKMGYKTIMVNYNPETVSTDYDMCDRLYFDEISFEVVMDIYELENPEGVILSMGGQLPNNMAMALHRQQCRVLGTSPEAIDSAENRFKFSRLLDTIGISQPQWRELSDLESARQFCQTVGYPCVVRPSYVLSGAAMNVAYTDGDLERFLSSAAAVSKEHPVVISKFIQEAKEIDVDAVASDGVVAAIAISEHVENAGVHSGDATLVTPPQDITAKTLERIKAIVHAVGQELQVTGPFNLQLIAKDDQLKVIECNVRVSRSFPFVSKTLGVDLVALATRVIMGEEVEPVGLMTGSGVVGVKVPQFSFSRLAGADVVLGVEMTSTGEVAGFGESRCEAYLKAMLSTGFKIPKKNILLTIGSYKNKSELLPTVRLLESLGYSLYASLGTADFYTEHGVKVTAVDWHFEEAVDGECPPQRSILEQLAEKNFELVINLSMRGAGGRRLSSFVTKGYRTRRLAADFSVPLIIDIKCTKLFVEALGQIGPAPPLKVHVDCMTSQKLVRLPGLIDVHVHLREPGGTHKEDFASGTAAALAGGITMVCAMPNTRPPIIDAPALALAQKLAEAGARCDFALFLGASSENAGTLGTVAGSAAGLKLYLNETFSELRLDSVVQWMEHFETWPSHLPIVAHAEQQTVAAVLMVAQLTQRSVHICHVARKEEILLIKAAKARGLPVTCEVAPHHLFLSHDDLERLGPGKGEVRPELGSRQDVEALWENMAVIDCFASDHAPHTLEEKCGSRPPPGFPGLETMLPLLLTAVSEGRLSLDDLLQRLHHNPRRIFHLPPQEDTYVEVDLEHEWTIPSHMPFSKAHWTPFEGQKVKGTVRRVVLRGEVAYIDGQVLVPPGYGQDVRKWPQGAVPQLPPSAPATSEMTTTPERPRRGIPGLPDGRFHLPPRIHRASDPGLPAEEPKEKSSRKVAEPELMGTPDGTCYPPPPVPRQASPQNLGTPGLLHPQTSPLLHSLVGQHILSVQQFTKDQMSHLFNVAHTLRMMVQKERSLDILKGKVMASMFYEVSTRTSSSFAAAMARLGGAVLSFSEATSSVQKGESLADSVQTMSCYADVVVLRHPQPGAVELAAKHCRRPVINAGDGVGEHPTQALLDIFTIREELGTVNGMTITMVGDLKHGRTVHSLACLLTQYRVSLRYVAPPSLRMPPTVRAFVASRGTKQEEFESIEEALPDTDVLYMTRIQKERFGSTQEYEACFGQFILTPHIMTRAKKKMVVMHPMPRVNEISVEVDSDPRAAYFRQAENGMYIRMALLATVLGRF
UniProt Q9HCN3: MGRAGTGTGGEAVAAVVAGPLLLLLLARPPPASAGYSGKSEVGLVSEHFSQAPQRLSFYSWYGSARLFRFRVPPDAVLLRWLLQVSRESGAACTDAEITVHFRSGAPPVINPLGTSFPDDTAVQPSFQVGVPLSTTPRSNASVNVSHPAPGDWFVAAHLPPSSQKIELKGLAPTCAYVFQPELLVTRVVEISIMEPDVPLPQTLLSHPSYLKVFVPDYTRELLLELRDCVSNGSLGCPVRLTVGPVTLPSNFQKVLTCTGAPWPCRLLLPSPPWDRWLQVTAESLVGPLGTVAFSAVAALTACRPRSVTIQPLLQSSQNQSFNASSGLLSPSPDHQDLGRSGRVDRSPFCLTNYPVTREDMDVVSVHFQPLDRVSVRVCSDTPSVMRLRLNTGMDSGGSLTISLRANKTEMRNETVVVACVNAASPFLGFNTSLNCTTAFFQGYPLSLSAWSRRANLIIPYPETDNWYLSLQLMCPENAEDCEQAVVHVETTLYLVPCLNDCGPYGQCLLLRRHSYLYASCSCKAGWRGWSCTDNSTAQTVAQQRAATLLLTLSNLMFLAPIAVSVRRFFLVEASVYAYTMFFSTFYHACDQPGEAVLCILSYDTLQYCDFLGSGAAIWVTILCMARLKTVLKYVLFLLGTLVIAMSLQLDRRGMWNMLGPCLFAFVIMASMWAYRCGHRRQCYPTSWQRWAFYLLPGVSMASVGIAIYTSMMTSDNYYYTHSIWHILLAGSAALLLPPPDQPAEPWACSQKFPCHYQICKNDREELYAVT
UniProt O94952: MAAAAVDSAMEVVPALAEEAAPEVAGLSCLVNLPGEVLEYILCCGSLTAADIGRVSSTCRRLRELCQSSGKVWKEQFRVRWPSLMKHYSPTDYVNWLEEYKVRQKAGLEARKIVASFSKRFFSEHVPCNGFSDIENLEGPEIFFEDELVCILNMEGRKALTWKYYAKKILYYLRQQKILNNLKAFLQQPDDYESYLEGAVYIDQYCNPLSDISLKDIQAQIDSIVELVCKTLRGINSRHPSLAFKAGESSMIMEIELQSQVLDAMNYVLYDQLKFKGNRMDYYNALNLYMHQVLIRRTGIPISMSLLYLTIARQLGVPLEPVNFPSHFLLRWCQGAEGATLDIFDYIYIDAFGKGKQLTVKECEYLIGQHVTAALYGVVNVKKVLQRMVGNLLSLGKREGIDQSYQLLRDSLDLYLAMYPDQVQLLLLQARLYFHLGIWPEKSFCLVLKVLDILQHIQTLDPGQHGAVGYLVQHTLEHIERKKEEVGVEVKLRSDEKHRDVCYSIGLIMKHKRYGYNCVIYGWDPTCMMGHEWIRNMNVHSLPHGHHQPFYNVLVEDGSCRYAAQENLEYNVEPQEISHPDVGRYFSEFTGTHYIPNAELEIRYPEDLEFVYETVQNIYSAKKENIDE
UniProt Q9Y421: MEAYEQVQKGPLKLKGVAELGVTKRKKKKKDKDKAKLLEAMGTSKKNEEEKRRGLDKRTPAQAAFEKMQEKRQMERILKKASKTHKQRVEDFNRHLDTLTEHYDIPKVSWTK
UniProt Q8WVC6: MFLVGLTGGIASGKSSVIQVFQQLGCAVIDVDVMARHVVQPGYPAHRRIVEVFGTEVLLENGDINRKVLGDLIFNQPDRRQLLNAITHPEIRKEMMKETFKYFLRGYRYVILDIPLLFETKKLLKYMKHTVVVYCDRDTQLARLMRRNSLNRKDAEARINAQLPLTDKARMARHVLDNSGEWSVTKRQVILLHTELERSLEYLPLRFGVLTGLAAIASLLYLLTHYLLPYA
UniProt P80404: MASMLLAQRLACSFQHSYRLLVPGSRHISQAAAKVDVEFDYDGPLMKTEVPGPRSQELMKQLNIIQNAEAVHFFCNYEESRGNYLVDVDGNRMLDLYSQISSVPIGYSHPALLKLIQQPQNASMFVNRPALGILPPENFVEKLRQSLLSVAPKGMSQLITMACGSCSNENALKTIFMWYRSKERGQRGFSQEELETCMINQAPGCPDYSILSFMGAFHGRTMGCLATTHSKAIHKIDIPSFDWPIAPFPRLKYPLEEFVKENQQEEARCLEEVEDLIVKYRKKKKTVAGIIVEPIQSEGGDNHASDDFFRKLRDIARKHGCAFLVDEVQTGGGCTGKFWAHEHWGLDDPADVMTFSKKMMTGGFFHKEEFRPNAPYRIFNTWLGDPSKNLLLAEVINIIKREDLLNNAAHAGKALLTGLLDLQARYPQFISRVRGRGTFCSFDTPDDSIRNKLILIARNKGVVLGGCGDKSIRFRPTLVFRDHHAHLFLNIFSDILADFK
UniProt Q9Y580: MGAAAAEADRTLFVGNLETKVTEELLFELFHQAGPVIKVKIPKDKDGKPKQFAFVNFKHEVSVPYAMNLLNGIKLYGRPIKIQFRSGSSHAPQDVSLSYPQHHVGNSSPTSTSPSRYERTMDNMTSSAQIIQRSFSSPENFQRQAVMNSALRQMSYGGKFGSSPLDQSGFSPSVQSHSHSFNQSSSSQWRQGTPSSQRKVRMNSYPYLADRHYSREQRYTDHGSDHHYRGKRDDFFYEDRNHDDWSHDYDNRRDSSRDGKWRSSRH
UniProt Q86Z02: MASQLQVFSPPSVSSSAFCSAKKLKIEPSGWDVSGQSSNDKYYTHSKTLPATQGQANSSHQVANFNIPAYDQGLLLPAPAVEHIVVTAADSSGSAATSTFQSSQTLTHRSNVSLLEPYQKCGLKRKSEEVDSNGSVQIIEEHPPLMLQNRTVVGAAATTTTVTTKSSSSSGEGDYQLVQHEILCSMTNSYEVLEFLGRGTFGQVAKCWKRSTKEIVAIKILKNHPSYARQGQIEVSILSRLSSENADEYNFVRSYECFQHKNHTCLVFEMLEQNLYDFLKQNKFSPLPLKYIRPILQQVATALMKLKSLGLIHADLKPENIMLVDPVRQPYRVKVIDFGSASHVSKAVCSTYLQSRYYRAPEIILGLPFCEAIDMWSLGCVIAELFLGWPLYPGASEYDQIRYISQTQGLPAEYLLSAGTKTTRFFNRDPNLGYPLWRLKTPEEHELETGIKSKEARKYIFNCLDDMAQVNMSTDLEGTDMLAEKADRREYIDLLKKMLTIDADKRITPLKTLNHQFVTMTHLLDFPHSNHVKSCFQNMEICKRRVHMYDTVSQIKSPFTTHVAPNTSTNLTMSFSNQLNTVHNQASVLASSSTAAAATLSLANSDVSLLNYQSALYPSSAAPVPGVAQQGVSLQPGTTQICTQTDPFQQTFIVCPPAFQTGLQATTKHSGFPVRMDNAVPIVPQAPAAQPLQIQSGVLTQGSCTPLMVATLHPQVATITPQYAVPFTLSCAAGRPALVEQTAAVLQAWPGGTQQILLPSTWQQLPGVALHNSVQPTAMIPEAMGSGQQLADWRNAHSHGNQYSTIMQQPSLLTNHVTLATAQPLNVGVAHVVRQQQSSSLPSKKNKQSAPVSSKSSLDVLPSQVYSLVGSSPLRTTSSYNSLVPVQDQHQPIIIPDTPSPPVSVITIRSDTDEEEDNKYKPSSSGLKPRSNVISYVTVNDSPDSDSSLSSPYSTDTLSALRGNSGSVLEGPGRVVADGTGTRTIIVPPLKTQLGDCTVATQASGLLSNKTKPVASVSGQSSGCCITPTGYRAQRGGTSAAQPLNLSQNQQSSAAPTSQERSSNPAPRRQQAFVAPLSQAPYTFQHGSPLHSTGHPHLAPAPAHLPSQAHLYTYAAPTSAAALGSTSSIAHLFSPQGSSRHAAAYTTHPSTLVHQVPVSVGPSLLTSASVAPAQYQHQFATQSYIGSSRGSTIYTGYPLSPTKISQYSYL
UniProt O95476: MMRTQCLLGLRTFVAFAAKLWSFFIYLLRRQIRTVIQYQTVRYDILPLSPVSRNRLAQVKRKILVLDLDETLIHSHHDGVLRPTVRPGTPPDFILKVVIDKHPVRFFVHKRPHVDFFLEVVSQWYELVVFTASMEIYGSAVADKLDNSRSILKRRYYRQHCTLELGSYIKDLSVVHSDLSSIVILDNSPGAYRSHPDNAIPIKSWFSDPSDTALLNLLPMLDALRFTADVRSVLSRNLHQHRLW
UniProt P29017: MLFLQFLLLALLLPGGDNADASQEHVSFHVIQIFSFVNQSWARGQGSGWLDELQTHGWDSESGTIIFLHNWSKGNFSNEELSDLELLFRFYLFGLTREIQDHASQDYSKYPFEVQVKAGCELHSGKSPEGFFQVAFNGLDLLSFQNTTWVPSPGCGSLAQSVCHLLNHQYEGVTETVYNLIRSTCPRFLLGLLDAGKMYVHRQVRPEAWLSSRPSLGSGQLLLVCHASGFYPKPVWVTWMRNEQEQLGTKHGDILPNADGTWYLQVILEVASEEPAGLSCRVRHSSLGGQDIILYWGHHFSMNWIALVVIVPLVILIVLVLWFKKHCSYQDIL

Compound in this experiment: Nc1ncnc2c1ncn2[C@@H]1O[C@H](COP(=O)(O)OP(=O)(O)OP(=O)(O)O)[C@@H](O)[C@H]1O [adenosine triphosphate]
The experiment in a line: NP40-soluble protein abundance relative to vehicle (solubility fold change) (ratio); higher = more soluble protein in presence of ATP. The method, boiled down: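 Values are fold changes against the detergent-processed vehicle, based on vsn-normalised intensities. Jurkat crude lysate was treated at eight concentrations from 0.1 to 10 mM (10 min at room temperature, then 3 min at 37 °C), solubilised with 0.8% NP40 and benzonase, ultracentrifuged and analysed by TMT-labelled LC-MS/MS over three independent experiments.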

As to “J3KNN3 and related entries (UniProt P15735)”, the NP40-soluble protein abundance was 0.984 ± 0.05 (concentration: 0.1mM) and 0.967 ± 0.062 (concentration: 0.5mM).

As to “H0YK61 and related entries (UniProt Q5J8M3)”, the NP40-soluble protein abundance reads like this: (concentration: 0.1mM) 0.947 ± 0.041; (concentration: 0.5mM) 0.974 ± 0.047.

On to “H7BYY1 and related entries (UniProt P09493)”, for which the NP40-soluble protein abundance stood at 0.826 ± 0.18 (concentration: 0.1mM) and 0.777 ± 0.18 (concentration: 0.5mM).

“H7BYF2 and related entries (UniProt Q9BVL2)”: the NP40-soluble protein abundance was 0.927 ± 0.072 (concentration: 0.1mM) and 0.882 ± 0.025 (concentration: 0.5mM).

In the case of “K7EKW4 and related entries (UniProt Q96AB3)”, the NP40-soluble protein abundance runs as follows: (concentration: 0.1mM) 0.989 ± 0.03; (concentration: 0.5mM) 0.94 ± 0.041.

As for “H0YDM4 and related entries (UniProt Q86VS8)”, the NP40-soluble protein abundance runs as follows: (concentration: 0.1mM) 0.924 ± 0.04; (concentration: 0.5mM) 0.929 ± 0.035.

In the case of “J3QQJ0 and related entries (UniProt Q9UHR5)”, the NP40-soluble protein abundance (concentration: 0.1mM) is 0.935 ± 0.02 and the NP40-soluble protein abundance (concentration: 0.5mM) turned out to be 0.899 ± 0.02.

For “H7BZB3 and related entries (UniProt P27708)”, the NP40-soluble protein abundance (concentration: 0.1mM) came to 0.995 ± 0.047 and the NP40-soluble protein abundance (concentration: 0.5mM) was found to be 0.991 ± 0.062.

Regarding “K7EMK7 and related entries (UniProt Q04725)”, the NP40-soluble protein abundance runs as follows: (concentration: 0.1mM) 1.04 ± 0.12; (concentration: 0.5mM) 0.967 ± 0.076.

Consider “K4DI83 and related entries (UniProt Q9HCN3)”, for which the NP40-soluble protein abundance is 1.01 ± 0.041 (concentration: 0.1mM) and 1.02 ± 0.19 (concentration: 0.5mM).

Turning to “J3KSZ8 and related entries (UniProt Q68DK7)”, the NP40-soluble protein abundance was 1.09 ± 0.14 (concentration: 0.1mM) and 1.14 ± 0.059 (concentration: 0.5mM).

“J3KNA0 and related entries (UniProt Q15070)”: the NP40-soluble protein abundance runs as follows: (concentration: 0.1mM) 0.996 ± 0.039; (concentration: 0.5mM) 0.958 ± 0.059.

In the case of “H3BPB8 and related entries (UniProt P34949)”, the NP40-soluble protein abundance came to 1.03 ± 0.011 (concentration: 0.1mM) and 1.04 ± 0.016 (concentration: 0.5mM).

For “H3BPE7 and related entries (UniProt P35637)”, the NP40-soluble protein abundance runs as follows: (concentration: 0.1mM) 0.951 ± 0.043; (concentration: 0.5mM) 0.97 ± 0.0019.

On to “H0YEH1 and related entries (UniProt Q13492)”, for which the NP40-soluble protein abundance (concentration: 0.1mM) is 0.967 ± 0.014 and the NP40-soluble protein abundance (concentration: 0.5mM) turned out to be 0.951 ± 0.051.

Consider “H0YIE9 and related entries (UniProt O94952)”, for which the NP40-soluble protein abundance (concentration: 0.1mM) came out at 1.03 ± 0.041 and the NP40-soluble protein abundance (concentration: 0.5mM) worked out at 1.06 ± 0.098.

For the target “H7C5A7 and related entries (UniProt O14734)”, the NP40-soluble protein abundance is 1.02 ± 0.039 (concentration: 0.1mM) and 0.997 ± 0.017 (concentration: 0.5mM).

For the target “H7C3X7 and related entries (UniProt Q2T9K0)”, the NP40-soluble protein abundance was determined as 1.1 ± 0.24 (concentration: 0.1mM) and 0.91 ± 0.38 (concentration: 0.5mM).

For “J3KNG8 and related entries (UniProt Q8TF40)”, the NP40-soluble protein abundance runs as follows: (concentration: 0.1mM) 1.03 ± 0.092; (concentration: 0.5mM) 0.982 ± 0.042.

In the case of “J3QLS3 and related entries (UniProt Q9Y2R9)”, the NP40-soluble protein abundance (concentration: 0.1mM) was found to be 0.923 ± 0.098 and the NP40-soluble protein abundance (concentration: 0.5mM) came to 0.917 ± 0.1.

As for “H7C2Q8 and related entries (UniProt Q99848)”, the NP40-soluble protein abundance runs as follows: (concentration: 0.1mM) 0.968 ± 0.13; (concentration: 0.5mM) 1.11 ± 0.14.

For the target “K7EIY1 and related entries (UniProt Q9Y421)”, the NP40-soluble protein abundance (concentration: 0.1mM) turned out to be 0.793 ± 0.084 and the NP40-soluble protein abundance (concentration: 0.5mM) was 0.741 ± 0.12.

As to “K7ESP4 and related entries (UniProt Q8WVC6)”, the NP40-soluble protein abundance runs as follows: (concentration: 0.1mM) 1.167 ± 0.0036; (concentration: 0.5mM) 1.26 ± 0.083.

As to “J3KPP0 and related entries (UniProt Q9Y6G3)”, the NP40-soluble protein abundance reads like this: (concentration: 0.1mM) 0.955 ± 0.12; (concentration: 0.5mM) 0.997 ± 0.19.

As to “H3BRN4 and related entries (UniProt P80404)”, the NP40-soluble protein abundance is 1.04 ± 0.06 (concentration: 0.1mM) and 0.993 ± 0.023 (concentration: 0.5mM).

For “H0Y9X1 and related entries (UniProt Q96EY4)”, the NP40-soluble protein abundance reads like this: (concentration: 0.1mM) 0.905 ± 0.055; (concentration: 0.5mM) 0.907 ± 0.046.

In the case of “H6UMI1 and related entries (UniProt O95166)”, the NP40-soluble protein abundance by setting is: (concentration: 0.1mM) 0.923 ± 0.065; (concentration: 0.5mM) 0.987 ± 0.022.

“K7EK78 and related entries (UniProt Q86Y39+K7EQ77+K7EP35+K7EMT4+K7EK78)”: the NP40-soluble protein abundance runs as follows: (concentration: 0.1mM) 1.15 ± 0.19; (concentration: 0.5mM) 1.17 ± 0.3.

Consider “K7EK07 and related entries (UniProt P84243+K7EK07)”, for which the NP40-soluble protein abundance (concentration: 0.1mM) amounted to 0.855 ± 0.16 and the NP40-soluble protein abundance (concentration: 0.5mM) was 0.865 ± 0.061.

Regarding “H0YNG3 and related entries (UniProt P67812)”, the NP40-soluble protein abundance (concentration: 0.1mM) stood at 1.06 ± 0.11 and the NP40-soluble protein abundance (concentration: 0.5mM) came out at 1.02 ± 0.066.

Turning to “H0Y9S9 and related entries (UniProt O43314)”, the NP40-soluble protein abundance by setting is: (concentration: 0.1mM) 1.04 ± 0.056; (concentration: 0.5mM) 1.02 ± 0.059.

Regarding “J3KPD3 and related entries (UniProt Q9Y580)”, the NP40-soluble protein abundance is, setting by setting: (concentration: 0.1mM) 0.989 ± 0.027; (concentration: 0.5mM) 0.951 ± 0.068.

For the target K7EKM7 (UniProt O75264), the NP40-soluble protein abundance by setting is: (concentration: 0.1mM) 0.944 ± 0.053; (concentration: 0.5mM) 0.953 ± 0.17.

On to “J3KP92 and related entries (UniProt Q86Z02)”, for which the NP40-soluble protein abundance was 1.08 ± 0.11 (concentration: 0.1mM) and 0.987 ± 0.027 (concentration: 0.5mM).

Take “I3L3K5 and related entries (UniProt O95476)”: the NP40-soluble protein abundance runs as follows: (concentration: 0.1mM) 1.02 ± 0.13; (concentration: 0.5mM) 1.02 ± 0.015.

Consider “H0YCP6 and related entries (UniProt Q5T3F8)”, for which the NP40-soluble protein abundance by setting is: (concentration: 0.1mM) 0.96 ± 0.059; (concentration: 0.5mM) 0.888 ± 0.08.

“H0YKC9 and related entries (UniProt Q9HA82)”: the NP40-soluble protein abundance was determined as 1.01 ± 0.029 (concentration: 0.1mM) and 1.07 ± 0.038 (concentration: 0.5mM).

As to “H0Y6Y6 and related entries (UniProt P29017)”, the NP40-soluble protein abundance was 0.941 ± 0.032 (concentration: 0.1mM) and 0.913 ± 0.066 (concentration: 0.5mM).

Turning to “H0YBI6 and related entries (UniProt Q86VQ6)”, the NP40-soluble protein abundance (concentration: 0.1mM) was 0.996 ± 0.092 and the NP40-soluble protein abundance (concentration: 0.5mM) worked out at 1.07 ± 0.11.

For “H3BNX8 and related entries (UniProt P20674)”, the NP40-soluble protein abundance reads like this: (concentration: 0.1mM) 0.953 ± 0.07; (concentration: 0.5mM) 0.897 ± 0.092.

Consider “J3KNV1 and related entries (UniProt O60281)”, for which the NP40-soluble protein abundance reads like this: (concentration: 0.1mM) 1.03 ± 0.048; (concentration: 0.5mM) 1.02 ± 0.019.

With “H0YA20 and related entries (UniProt P52824)”, the NP40-soluble protein abundance runs as follows: (concentration: 0.1mM) 0.981 ± 0.03; (concentration: 0.5mM) 0.978 ± 0.025.

As for “J3KSW2 and related entries (UniProt Q9UNA4)”, the NP40-soluble protein abundance reads like this: (concentration: 0.1mM) 0.98 ± 0.16; (concentration: 0.5mM) 1.07 ± 0.13.

Take “H7BXD5 and related entries (UniProt P28676)”: the NP40-soluble protein abundance was determined as 0.981 ± 0.029 (concentration: 0.1mM) and 0.799 ± 0.15 (concentration: 0.5mM).

The record behind these values is the supplement of paper PMC6411743.
